According to the supplement of paper PMC10849652:
This is one part of the list.

Protein sequences, listed by entry. Tags and fused reporters are not part of them. Lines headed by an entry give the natural chain unless they say otherwise; changes in a name come on top.
UniProt Q9UQB8: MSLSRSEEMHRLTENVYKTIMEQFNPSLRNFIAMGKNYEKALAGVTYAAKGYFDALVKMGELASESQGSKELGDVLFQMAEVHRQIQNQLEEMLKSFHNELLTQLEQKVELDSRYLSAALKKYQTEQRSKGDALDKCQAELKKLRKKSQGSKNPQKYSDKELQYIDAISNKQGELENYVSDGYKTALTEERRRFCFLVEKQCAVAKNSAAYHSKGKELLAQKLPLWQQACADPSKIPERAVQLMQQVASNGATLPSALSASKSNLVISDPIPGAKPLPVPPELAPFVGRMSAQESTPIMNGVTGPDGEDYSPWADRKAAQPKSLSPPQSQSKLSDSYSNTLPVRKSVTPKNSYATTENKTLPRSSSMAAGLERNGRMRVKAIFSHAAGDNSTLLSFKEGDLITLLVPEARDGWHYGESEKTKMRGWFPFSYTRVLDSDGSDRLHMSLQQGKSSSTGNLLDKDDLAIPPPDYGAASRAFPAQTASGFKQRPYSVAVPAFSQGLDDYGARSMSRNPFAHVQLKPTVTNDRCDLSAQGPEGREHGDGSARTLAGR
UniProt Q9P287, whole entry, looked up: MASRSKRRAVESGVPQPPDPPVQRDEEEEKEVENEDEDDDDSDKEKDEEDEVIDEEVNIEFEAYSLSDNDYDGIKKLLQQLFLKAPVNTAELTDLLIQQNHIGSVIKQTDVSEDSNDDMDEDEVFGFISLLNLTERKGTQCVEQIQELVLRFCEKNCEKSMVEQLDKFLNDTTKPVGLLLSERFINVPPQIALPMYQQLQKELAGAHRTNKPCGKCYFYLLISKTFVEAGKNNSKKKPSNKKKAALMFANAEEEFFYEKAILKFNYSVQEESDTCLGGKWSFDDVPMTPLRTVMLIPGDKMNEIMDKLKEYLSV
UniProt Q9UL45: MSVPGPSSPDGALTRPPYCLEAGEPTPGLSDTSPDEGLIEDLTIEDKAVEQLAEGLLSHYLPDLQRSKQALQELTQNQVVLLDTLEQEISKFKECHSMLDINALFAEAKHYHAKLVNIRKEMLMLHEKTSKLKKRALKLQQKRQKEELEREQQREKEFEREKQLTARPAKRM
UniProt Q9HB09: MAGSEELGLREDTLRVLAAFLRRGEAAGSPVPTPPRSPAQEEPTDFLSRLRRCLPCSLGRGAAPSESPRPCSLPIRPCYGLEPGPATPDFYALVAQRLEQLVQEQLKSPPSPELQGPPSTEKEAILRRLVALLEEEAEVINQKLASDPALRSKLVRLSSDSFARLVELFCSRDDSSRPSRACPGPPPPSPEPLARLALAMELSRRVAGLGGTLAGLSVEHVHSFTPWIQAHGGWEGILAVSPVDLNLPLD
UniProt Q12983, whole entry, looked up: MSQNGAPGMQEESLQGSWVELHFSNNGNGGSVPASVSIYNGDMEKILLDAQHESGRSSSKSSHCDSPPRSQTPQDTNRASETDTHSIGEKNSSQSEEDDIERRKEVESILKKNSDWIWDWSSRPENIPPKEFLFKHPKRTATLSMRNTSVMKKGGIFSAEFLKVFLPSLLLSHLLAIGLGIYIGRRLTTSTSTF
UniProt O14965: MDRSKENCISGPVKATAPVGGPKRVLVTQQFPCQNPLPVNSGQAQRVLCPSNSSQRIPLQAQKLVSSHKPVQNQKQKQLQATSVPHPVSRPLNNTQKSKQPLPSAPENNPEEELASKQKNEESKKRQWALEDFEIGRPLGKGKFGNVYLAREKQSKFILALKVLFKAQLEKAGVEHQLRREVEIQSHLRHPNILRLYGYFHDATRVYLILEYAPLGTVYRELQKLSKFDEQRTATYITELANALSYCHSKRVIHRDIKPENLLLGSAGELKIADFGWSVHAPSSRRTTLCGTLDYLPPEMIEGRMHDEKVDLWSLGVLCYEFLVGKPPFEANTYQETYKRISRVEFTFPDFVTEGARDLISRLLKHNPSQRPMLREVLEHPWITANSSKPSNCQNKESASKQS
UniProt Q13535: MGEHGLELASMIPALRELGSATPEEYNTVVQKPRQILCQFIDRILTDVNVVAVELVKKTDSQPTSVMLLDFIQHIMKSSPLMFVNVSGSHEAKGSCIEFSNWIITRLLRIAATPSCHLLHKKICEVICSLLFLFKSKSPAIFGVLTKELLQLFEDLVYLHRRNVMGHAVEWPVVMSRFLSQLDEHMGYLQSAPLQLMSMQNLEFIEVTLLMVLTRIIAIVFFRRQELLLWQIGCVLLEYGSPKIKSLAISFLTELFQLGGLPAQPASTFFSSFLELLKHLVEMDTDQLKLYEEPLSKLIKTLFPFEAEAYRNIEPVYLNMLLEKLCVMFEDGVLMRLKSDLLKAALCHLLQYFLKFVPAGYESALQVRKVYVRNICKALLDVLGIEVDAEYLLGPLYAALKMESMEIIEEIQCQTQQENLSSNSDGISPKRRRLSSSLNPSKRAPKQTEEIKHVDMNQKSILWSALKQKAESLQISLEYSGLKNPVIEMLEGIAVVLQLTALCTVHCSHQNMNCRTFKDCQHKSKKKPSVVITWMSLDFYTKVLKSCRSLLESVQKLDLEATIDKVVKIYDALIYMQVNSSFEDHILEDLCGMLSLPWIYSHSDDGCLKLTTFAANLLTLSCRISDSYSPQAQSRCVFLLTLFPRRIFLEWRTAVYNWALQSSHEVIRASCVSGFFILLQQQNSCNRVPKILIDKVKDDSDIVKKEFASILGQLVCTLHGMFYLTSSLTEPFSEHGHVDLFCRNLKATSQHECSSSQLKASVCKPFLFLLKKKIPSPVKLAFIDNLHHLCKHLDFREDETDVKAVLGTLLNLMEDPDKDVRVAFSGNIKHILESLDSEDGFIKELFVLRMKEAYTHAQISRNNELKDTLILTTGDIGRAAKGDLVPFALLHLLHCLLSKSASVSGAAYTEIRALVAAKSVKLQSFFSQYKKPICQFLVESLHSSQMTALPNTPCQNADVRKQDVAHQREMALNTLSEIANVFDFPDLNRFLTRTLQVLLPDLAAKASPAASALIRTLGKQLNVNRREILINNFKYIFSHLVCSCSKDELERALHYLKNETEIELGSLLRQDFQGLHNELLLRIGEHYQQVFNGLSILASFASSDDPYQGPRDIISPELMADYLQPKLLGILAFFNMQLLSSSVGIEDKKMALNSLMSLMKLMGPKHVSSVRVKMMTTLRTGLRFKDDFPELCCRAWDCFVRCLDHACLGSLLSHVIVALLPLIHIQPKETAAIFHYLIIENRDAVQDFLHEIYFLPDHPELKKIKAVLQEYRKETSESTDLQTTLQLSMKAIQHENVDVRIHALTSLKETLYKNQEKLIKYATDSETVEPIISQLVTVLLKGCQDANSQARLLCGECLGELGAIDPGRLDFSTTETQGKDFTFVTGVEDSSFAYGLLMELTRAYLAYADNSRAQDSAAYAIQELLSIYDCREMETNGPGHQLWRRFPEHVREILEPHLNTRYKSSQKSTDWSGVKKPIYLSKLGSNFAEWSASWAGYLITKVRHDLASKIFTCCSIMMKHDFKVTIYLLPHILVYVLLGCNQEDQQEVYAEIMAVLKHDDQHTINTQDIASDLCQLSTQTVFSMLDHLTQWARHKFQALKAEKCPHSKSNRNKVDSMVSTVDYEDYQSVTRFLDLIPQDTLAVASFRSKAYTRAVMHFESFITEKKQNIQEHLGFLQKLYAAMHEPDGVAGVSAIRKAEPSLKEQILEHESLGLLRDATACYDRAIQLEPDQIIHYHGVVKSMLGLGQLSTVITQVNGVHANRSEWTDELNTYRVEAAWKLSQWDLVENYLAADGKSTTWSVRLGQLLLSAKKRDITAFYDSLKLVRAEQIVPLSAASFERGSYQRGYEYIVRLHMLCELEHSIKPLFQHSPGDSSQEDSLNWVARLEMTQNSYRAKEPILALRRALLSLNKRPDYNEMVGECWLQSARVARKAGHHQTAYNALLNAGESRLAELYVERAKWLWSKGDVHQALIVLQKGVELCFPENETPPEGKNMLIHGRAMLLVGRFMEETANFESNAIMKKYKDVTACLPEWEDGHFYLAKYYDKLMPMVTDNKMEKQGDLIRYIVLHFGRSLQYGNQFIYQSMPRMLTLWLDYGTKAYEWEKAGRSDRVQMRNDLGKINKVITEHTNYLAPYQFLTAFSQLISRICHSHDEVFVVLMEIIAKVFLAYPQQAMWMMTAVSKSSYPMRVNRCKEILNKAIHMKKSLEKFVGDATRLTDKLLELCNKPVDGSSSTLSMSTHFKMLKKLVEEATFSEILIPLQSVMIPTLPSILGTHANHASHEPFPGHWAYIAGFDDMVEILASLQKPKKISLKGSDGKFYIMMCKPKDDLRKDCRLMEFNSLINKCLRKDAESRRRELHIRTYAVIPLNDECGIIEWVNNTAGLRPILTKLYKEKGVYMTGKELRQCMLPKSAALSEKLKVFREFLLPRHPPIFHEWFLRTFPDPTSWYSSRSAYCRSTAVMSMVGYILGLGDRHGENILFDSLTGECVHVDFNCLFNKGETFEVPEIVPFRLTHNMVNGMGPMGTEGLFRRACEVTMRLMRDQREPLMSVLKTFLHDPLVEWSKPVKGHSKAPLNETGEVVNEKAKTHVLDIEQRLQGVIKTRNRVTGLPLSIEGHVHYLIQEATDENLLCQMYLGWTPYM
UniProt Q8TDN6: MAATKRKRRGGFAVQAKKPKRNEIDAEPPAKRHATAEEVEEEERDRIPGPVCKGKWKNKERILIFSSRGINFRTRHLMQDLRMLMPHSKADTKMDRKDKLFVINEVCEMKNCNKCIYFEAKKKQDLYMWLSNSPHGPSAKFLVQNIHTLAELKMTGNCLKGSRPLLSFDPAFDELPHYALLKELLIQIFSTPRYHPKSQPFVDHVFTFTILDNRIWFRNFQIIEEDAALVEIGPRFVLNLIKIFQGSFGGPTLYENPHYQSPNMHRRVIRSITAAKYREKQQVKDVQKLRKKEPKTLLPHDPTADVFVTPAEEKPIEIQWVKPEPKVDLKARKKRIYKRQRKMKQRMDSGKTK
UniProt O00512: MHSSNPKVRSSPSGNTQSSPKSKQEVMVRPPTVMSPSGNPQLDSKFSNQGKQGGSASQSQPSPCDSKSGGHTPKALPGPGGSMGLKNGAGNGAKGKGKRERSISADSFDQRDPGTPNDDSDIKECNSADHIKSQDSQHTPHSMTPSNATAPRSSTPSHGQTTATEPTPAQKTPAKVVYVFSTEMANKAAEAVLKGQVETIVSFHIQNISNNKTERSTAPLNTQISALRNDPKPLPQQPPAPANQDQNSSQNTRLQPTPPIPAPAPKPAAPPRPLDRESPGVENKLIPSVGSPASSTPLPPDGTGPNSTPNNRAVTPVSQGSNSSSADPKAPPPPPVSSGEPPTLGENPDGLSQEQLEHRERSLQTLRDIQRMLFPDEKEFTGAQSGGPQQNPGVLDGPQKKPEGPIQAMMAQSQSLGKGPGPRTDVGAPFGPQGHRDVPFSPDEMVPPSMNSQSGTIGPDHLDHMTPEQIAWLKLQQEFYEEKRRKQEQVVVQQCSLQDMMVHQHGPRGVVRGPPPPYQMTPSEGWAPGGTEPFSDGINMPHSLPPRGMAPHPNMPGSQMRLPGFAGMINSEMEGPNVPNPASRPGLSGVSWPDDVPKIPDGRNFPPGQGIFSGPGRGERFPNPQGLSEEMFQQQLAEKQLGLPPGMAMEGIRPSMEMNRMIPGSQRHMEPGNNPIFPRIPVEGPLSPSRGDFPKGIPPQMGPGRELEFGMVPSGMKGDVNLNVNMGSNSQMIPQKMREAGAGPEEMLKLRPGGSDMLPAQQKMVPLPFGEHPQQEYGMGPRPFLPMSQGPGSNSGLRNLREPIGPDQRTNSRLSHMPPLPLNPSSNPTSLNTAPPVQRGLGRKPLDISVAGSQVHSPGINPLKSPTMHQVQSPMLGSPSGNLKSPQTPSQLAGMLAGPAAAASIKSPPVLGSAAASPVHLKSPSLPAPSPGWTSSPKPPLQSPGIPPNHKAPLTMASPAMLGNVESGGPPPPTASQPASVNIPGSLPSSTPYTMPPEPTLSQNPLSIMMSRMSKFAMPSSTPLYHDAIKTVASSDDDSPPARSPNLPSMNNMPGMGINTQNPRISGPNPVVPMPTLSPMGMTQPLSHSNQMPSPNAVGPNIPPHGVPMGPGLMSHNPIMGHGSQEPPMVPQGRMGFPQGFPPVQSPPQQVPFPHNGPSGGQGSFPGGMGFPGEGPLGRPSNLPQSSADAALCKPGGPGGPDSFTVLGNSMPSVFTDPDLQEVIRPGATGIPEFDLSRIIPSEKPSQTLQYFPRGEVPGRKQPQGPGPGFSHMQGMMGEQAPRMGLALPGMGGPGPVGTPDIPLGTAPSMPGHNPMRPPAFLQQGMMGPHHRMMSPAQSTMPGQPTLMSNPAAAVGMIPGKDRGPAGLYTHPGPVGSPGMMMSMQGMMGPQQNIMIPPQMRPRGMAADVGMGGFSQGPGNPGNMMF
UniProt Q92934: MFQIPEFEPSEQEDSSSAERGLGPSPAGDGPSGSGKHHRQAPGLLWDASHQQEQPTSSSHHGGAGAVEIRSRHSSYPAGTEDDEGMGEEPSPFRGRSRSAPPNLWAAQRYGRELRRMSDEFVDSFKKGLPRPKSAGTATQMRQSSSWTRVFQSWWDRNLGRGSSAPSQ

Columns and labels:
Assay in all cases: log2 fold change, soluble protein after heating vs DMSO (PISA); higher = thermal stabilisation; K562 cells, 10 uM, 30 min; active = over 0.2 and 3.5 SD of the protein, either way, in both replicates (recomputed)
[1] = compound: CC[C@@H]1C(=O)N(C)c2cnc(Nc3ccc(C(=O)NC4CCN(C)CC4)cc3OC)nc2N1C1CCCC1
In short: (§1)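 Aliquots of K562 cells (2×10^6 cells/mL) treated with 10 μM compound for 30 min were heated for 3 min over 48°C-58°C. After pooling and extraction in PBS with 0.5% NP-40 at 4°C, soluble protein from a 21,000xg, 90 min spin was quantified by TMTpro 16plex LC-MS/MS with channel sums equalised. Thermal stability is expressed against control samples, from duplicates, as a log2 fold change.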

[2] = compound: CC[C@@H]1C(=O)N(C)c2cnc(Nc3ccc(C(=O)N[C@H]4CC[C@H](N5CCN(CC6CC6)CC5)CC4)cc3OC)nc2N1C(C)C [volasertib]
In short: as §1

[3] = compound: CC[C@H](C)N1C=C(C2=C(C=C(C=C21)C3=CN=C(C=C3)N4CCNCC4)C(=O)NCC5=C(C=C(NC5=O)C)C)C
In short: as §1

[4] = compound: CC[C@H](C)[C@@H](C(=O)N[C@@H]([C@@H](C)O)C(=O)N[C@@H](CC(C)C)C(=O)[C@]1(CO1)C)NC(=O)[C@H]([C@@H](C)CC)N(C)C(=O)C [epoxomicin]
In short: as §1

[5] = compound: CCn1cc(-c2ccnc3[nH]c(-c4cccc(CN(C)C)c4)cc23)c(-c2ccc(NC(=O)N(C)C)cc2)n1
In short: as §1

[6] = compound: CN(C)CC(=O)Nc1ccc2[nH]c(=O)c3ccccc3c2c1
In short: as §1

[7] = compound: CN1C2=C(C3=C1C(=O)N(N=C3)CC4=CC(=CC=C4)N)SC(=C2)S(=O)C
In short: as §1

[8] = compound: CN1CCC(CNc2ccc3ncc(-c4cccc(OC(F)(F)F)c4)n3n2)CC1
In short: as §1

[9] = compound: CN1CCN(CCOc2cc(OC3CCOCC3)c3c(Nc4c(Cl)ccc5c4OCO5)ncnc3c2)CC1 [saracatinib]
In short: as §1

[10] = compound: CN1CCN(c2nc(C3=C(c4c[nH]c5ccccc45)C(=O)NC3=O)c3ccccc3n2)CC1 [sotrastaurin]
In short: as §1

[11] = compound: CN1CCc2c(c3ccccc3n2Cc2ccc(C(=O)NO)cc2)C1 [Tubastatin A]
In short: as §1

[12] = compound: CNC(=O)C1=CC=CC=C1NC2=NC(=NC=C2Cl)NC3=C(C=C(C=C3)N4CCOCC4)OC
In short: as §1

[13] = compound: CNC(=O)c1ccc(Nc2ncc(C(F)(F)F)c(NCc3nccnc3N(C)S(C)(=O)=O)n2)cc1 [defactinib]
In short: as §1

[14] = compound: CNCc1ccc(-c2[nH]c3cc(F)cc4c3c2CCNC4=O)cc1 [rucaparib]
In short: as §1

[15] = compound: CNc1nc(-c2ccc3c(N)n[nH]c3c2)cc(N2C[C@@H](C(=O)NC3CCCCC3)CC[C@H]2C)n1
In short: as §1

[16] = compound: COC(=O)N[C@@H](C)CNc1nccc(-c2cn(C(C)C)nc2-c2cc(Cl)cc(NS(C)(=O)=O)c2F)n1 [encorafenib]
In short: as §1

[17] = compound: COC(=O)[C@H](CCSC)NC(=O)C1=C(C=C(C=C1)NC[C@H](CS)N)C2=CC=CC=C2
In short: as §1

[18] = compound: CCn1c(C(=O)N(C2CC2)C2CC2)cc2c3c(ncn3C)c(Nc3cc(C)n(C)n3)nc21
In short: as §1

[19] = compound: CN(CCOC1=CC=C(C=C1)C[C@H]2C(=O)NC(=O)S2)C3=CC=CC=N3 (racemic) [rosiglitazone]
In short: as §1

[20] = compound: CN1CC[C@H](c2c(O)cc(O)c3c(=O)cc(-c4ccccc4Cl)oc23)[C@H](O)C1 [alvocidib]
In short: as §1

Measured: log2 fold change

BAIAP2 (UniProt Q9UQB8)
inactive: [1] -0.045 | [2] -0.089 | [3] 0.082 | [4] 0.14 | [5] -0.05 | [6] -0.019 | [7] -0.015 | [8] -0.142 | [9] 0.009 | [10] -0.016 | [11] 0.036 | [12] -0.103 | [13] -0.097 | [14] 0.014 | [15] -0.017 | [16] 0.006 | [17] -0.022

BCCIP (UniProt Q9P287)
inactive: [1] -0.009 | [2] -0.047 | [3] -0.005 | [4] 0.092 | [5] 0.033 | [6] 0.019 | [7] 0.047 | [8] -0.043 | [9] -0.132 | [10] 0 | [11] -0.045 | [12] -0.013 | [13] 0.072 | [14] 0.165 | [15] 0.02 | [16] 0.076 | [17] -0.049

BLOC1S6 (UniProt Q9UL45)
inactive: [1] -0.058 | [2] 0.056 | [3] 0.145 | [4] 0.033 | [18] 0.279 | [6] -0.079 | [19] -0.007 | [7] -0.079 | [9] 0.015 | [10] 0.02 | [20] -0.032 | [11] -0.04 | [12] 0.073 | [13] -0.045 | [14] 0.018 | [15] 0.005 | [16] 0.005 | [17] 0.117

BRD4 (UniProt O60885)
active: [1] 1.89 | [2] 2.02 | [5] 0.597
inactive: [3] -0.007 | [4] 0.136 | [6] 0.169 | [7] -0.09 | [8] -0.062 | [9] 0.047 | [10] -0.149 | [11] -0.156 | [12] 0.065 | [13] -0.051 | [14] -0.073 | [15] 0.204 | [16] 0.01 | [17] -0.002

Taken from the results shown (two entries):
BLOC1S6 (UniProt Q9UL45)
inactive: [1] -0.058 | [2] 0.056 | [3] 0.145 | [4] 0.033 | [18] 0.279 | [6] -0.079 | [19] -0.007 | [7] -0.079 | [9] 0.015 | [10] 0.02 | [20] -0.032 | [11] -0.04 | [12] 0.073 | [13] -0.045 | [14] 0.018 | [15] 0.005 | [16] 0.005 | [17] 0.117

BRD4 (UniProt O60885)
active: [1] 1.89 | [2] 2.02 | [5] 0.597
inactive: [3] -0.007 | [4] 0.136 | [6] 0.169 | [7] -0.09 | [8] -0.062 | [9] 0.047 | [10] -0.149 | [11] -0.156 | [12] 0.065 | [13] -0.051 | [14] -0.073 | [15] 0.204 | [16] 0.01 | [17] -0.002

Carrying on:

BCL2L12 (UniProt Q9HB09)
inactive: [1] -0.029 | [2] -0.378 | [3] -0.144 | [4] 0.485 | [18] -0.108 | [5] -0.068 | [6] 0.09 | [19] 0.009 | [7] 0.107 | [8] 0.006 | [9] 0.055 | [20] -0.168 | [12] 0.013 | [13] -0.002 | [14] -0.008 | [15] -0.045 | [16] 0.104 | [17] 0.066

B4GALT1 (UniProt P15291)
active: [1] -0.324 | [2] -0.571 | [8] -0.28
inactive: [3] 0.033 | [4] 0.051 | [5] -0.048 | [6] -0.03 | [7] -0.081 | [9] -0.017 | [10] -0.07 | [11] 0.063 | [12] 0.023 | [13] 0.066 | [14] 0.013 | [15] -0.041 | [16] 0.032 | [17] -0.084

BAP1 (UniProt Q92560)
inactive: [1] -0.037 | [2] 0.13 | [3] 0 | [4] -0.092 | [5] 0.101 | [6] -0.093 | [7] 0.047 | [8] 0.055 | [9] -0.091 | [10] 0.089 | [11] 0.042 | [12] -0.1 | [13] 0.09 | [14] 0.037 | [15] 0.061 | [16] 0.014 | [17] -0.017

BID isoform 2 (UniProt P55957)
inactive: [1] 0.013 | [2] -0.196 | [3] -0.022 | [4] -0.036 | [5] 0.045 | [6] 0.042 | [7] -0.068 | [8] -0.048 | [9] 0.008 | [10] 0.04 | [11] 0.076 | [12] -0.053 | [13] -0.031 | [14] 0.033 | [15] -0.017 | [16] -0.011 | [17] -0.032

BOP1 (UniProt Q14137)
inactive: [1] -0.072 | [2] -0.328 | [3] 0.019 | [4] 0.002 | [5] -0.075 | [6] 0.009 | [7] 0.228 | [8] 0.141 | [9] 0.011 | [10] -0.043 | [11] -0.013 | [12] 0.015 | [13] -0.157 | [14] 0.066 | [15] -0.016 | [16] 0.155 | [17] 0.046

BCL9L (UniProt Q86UU0)
inactive: [1] 0 | [2] 0.036 | [3] 0.044 | [4] 0.038 | [5] -0.024 | [6] -0.003 | [7] -0.023 | [8] -0.019 | [9] -0.042 | [10] 0.042 | [11] 0.053 | [12] -0.017 | [13] -0.014 | [14] 0.026 | [15] -0.092 | [16] -0.033 | [17] 0.069

BNIP3 (UniProt Q12983)
inactive: [1] 0.011 | [2] -0.261 | [3] -0.017 | [4] 0.145 | [5] 0.085 | [6] 0.052 | [19] 0.051 | [8] -0.199 | [10] 0.04 | [11] 0.204 | [13] -0.003 | [14] -0.047 | [16] 0.054 | [17] -0.038

B4GALNT1 (UniProt Q00973)
inactive: [1] -0.243 | [2] -0.097 | [3] -0.115 | [4] -0.059 | [5] 0.01 | [6] 0.143 | [7] -0.103 | [8] 0.173 | [9] -0.143 | [10] -0.07 | [11] -0.057 | [12] -0.021 | [13] -0.182 | [14] 0.017 | [15] 0.025 | [16] 0.144 | [17] -0.425

AURKA (UniProt O14965)
inactive: [1] 0.017 | [2] 0.134 | [3] -0.022 | [4] 0.113 | [6] 0 | [7] 0.029 | [8] 0.14 | [9] -0.019 | [10] -0.02 | [11] 0.011 | [14] 0.073 | [15] 0.201 | [16] 0.033 | [17] 0.071
active: [5] 0.733 | [12] 0.974 | [13] 0.722

BECN1 (UniProt Q14457)
inactive: [1] 0.069 | [2] -0.003 | [3] 0.029 | [4] 0.07 | [5] -0.107 | [6] -0.003 | [7] 0.024 | [8] 0.009 | [9] 0.013 | [10] -0.038 | [11] -0.065 | [12] -0.029 | [13] -0.054 | [14] -0.014 | [15] -0.013 | [16] 0.001 | [17] 0.018

ATR (UniProt Q13535)
inactive: [1] -0.063 | [2] -0.197 | [3] -0.02 | [4] 0.048 | [5] -0.041 | [6] 0.052 | [7] -0.017 | [8] 0 | [9] -0.044 | [10] -0.013 | [11] 0.02 | [12] 0.014 | [13] -0.035 | [14] 0.008 | [15] 0.039 | [16] 0.008 | [17] -0.024

BRIX1 (UniProt Q8TDN6)
inactive: [1] 0.166 | [2] 0.317 | [3] 0.048 | [4] -0.343 | [5] 0.31 | [6] -0.143 | [7] 0.36 | [8] 0.481 | [9] -0.106 | [10] -0.051 | [11] 0.2 | [12] -0.154 | [13] 0.394 | [14] 0.253 | [15] 0.129 | [16] 0.123 | [17] 0.017

ATXN2 (UniProt F8W0B5)
inactive: [1] -0.008 | [3] -0.082 | [18] 0.016 | [5] 0.325 | [7] 0.126 | [8] -0.302 | [9] -0.076 | [10] 0.038 | [20] 0.152 | [12] -0.019 | [14] -0.006 | [15] 0.05 | [16] -0.034

BCL9 (UniProt O00512)
inactive: [1] -0.112 | [2] -0.034 | [4] 0.145 | [18] -0.099 | [5] -0.105 | [6] -0.31 | [7] 0.011 | [8] 0 | [9] 0.043 | [10] -0.16 | [20] 0.014 | [11] -0.17 | [12] 0.094 | [13] -0.049 | [14] 0.052 | [15] -0.134 | [16] -0.024 | [17] 0.001

BAD (UniProt Q92934)
inactive: [1] -0.043 | [2] 0.038 | [3] 0.085 | [4] -0.086 | [5] 0.022 | [6] -0.125 | [7] -0.069 | [8] -0.006 | [9] 0.021 | [10] 0.273 | [12] -0.032 | [13] 0.03 | [14] 0.032 | [15] -0.016 | [16] -0.047 | [17] -0.004
